Test results taken from patent publication US20240293514A1, “PHARMACEUTICAL COMPOSITIONS COMPRISING GLP-1R AGONISTS” (4MOVING BIOTECH, priority 2021, published 2024).
For some of these results: At least one structure is not confirmed: it was looked up by name or label, or the drawing left a doubt. Some results were stated once for a whole list of compounds, not compound by compound.

Legend:
[1] = tested on: MIA-induced model of osteoarthritis and inflammatory pain in rats; assay: Von Frey test, Victoza dose response and duration, MIA-induced model (Example 5); type: in vivo, SD rats; conditions: for paw withdrawal threshold vs MIA/vehicle group 2M: 120 μg IA (group 9M)
[2] = tested on: MIA-induced model of osteoarthritis and inflammatory pain in rats; assay: Electronic and equivalent von Frey scores normalized to vehicle group (Example 7); type: in vivo, SD rats; conditions: 270 μg IA (group 33M); at day 30
Experimental: Allodynia in rats following OA induction on day 1 was evaluated on day 2 and on day 7 using both Electronic (for cycle 1) and von Frey filaments (for cycle 2). Both tests are reliable and valid for the assessment of the mechanical sensitivity in the ipsilateral hind paw of rats. Additionally, von Frey filament score can be transposed approximately to an equivalent electronic von Frey score (theorical pressure in grams/mm^2). To assure the obtained results, we performed a test using both von Frey filaments and Electronic von Frey apparatus on three rats from three different groups (31M, 32M and 37M).
Equivalent electronic von Frey score was calculated using the “Aesthesio Precision Tactile sensory data chart” from the results obtained with von Frey filaments. Thus, to have a more representative vision of the results obtained in previous experiments using the electronic von Frey apparatus, we combine both the electronic von Frey scores obtained from Cycle 1 (Day 2 and 7) and the equivalent score calculated from the results obtained with the von Frey filaments for Cycle 1 (from day 10) and Cycle 2.

| Compound | duration of analgesic effect (von Frey) ([1]; 120 μg IA once on day 3 (group 9M), long term MIA model) | paw withdrawal threshold vs MIA/vehicle group 2M ([1]; day 7) | paw withdrawal threshold vs MIA/vehicle group 2M ([1]; day 10) | von Frey score normalized to vehicle group (31M) [2] |
| --- | --- | --- | --- | --- |
| C[C@@H]1C[C@H]2[C@@H]3CCC4=CC(=O)C=C[C@]4(C)[C@@]3(F)[C@@H](O)C[C@]2(C)[C@@]1(O)C(=O)CO [dexamethasone] | maintained significantly up to day 25 | significant dose-dependent increase | significant dose-dependent increase |  |
| dulaglutide |  |  |  | 50-60% |
